Paper doi:10.1101/2024.07.03.601496
Read-outs that look alike come from different tables or passages of the source. Results are given in words; binding and its absence hold for the method and conditions named. For part of these data: Binding seen in cells or lysates may run through a third protein. Some results given as binding are weak or reduced against the parent protein; the word gives no strength. For part of these data: Where a sequence is shown, tags or fusion partners need not be part of it. One block for each molecule: values may come before it.

Tests used:
[1] = target: T1, Exd (for EMSA) (Drosophila) (UniProt P40427); assay: native gel or EMSA
T1 sequence: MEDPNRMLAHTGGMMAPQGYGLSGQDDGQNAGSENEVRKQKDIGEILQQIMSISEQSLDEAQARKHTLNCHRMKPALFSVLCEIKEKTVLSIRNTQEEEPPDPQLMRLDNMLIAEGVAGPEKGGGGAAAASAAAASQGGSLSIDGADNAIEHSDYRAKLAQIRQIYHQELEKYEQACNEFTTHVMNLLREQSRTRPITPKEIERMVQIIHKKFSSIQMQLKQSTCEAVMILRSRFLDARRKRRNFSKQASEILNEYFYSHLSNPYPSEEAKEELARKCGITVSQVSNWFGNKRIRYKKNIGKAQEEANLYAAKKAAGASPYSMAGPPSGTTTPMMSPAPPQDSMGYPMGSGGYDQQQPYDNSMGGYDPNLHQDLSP

[2] = target: T2, Hth (for EMSA) (Drosophila) (UniProt O46339); assay: native gel or EMSA
T2 sequence: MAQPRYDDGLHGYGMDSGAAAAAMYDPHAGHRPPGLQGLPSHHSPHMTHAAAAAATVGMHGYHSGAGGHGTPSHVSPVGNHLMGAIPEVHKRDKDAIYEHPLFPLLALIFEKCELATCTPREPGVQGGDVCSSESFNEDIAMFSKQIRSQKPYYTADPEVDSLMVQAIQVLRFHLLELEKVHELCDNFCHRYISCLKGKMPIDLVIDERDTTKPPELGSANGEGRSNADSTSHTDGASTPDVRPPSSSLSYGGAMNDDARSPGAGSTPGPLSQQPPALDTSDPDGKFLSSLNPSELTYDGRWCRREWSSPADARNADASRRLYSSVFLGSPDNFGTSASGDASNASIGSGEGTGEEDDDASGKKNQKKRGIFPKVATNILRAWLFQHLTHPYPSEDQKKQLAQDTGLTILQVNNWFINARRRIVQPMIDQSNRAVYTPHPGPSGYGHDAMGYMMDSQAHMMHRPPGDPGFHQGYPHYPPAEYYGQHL

[3] = target: T1, Exd (for EMSA) (Drosophila); assay: native gel or EMSA; remark: listed apart in the source
[4] = target: T2, Hth (for EMSA) (Drosophila); assay: native gel or EMSA; remark: listed apart in the source
[5] = target: T3, VN::Exd (Exd fused to the N-terminal part of Venus) (Drosophila) (UniProt P40427); assay: split reporter
T3 sequence: T1 sequence

[6] = target: T4, Flag::Hth (Homothorax) (Drosophila) (UniProt O46339); assay: co-IP
T4 sequence: T2 sequence

[7] = target: T5, His::Exd (Extradenticle) (Drosophila) (UniProt P40427); assay: co-IP
T5 sequence: T1 sequence

[8] = target: T4, Flag::Hth (Homothorax) (Drosophila); assay: co-IP; remark: listed apart in the source

binding [1]: binds | binding [2]: binds | binding [3]: binds | binding [4]: binds
Molecule: Abd-B (wild type, for EMSA) (from UniProt P09087 1-493)

binding [5]: binds
Molecule: Abd-B::VC (Abd-B fused to the C-terminal part of Venus) (from UniProt P09087 1-493)

binding [6]: binds | binding [7]: binds | binding [8]: binds
Molecule: HA::Abd-B (Abdominal-B, wild type) (from UniProt P09087 1-493)

binding [6]: binds
B1: His::Exd (Extradenticle) (protein, UniProt P40427 1-376)
chain: T1 sequence
